# Measurements reported in the supplement of paper PMC3741180, “A Novel High Throughput Biochemical Assay to Evaluate the HuR Protein-RNA Complex Formation” (PLoS ONE, 2013).
# Sequences of proteins named here, by UniProt entry; tags and fusion partners are left off.
# UniProt Q15717, whole entry: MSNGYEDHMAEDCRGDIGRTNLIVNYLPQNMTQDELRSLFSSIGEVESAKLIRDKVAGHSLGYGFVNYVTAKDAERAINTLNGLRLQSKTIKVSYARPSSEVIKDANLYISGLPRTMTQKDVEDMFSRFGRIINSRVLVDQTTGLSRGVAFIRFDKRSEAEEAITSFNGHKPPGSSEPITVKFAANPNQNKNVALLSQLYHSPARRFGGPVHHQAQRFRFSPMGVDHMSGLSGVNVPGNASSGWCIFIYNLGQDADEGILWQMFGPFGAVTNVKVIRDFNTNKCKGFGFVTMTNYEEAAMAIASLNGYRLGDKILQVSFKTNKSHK
# Some of the results follow. This data set is noisy: repeats of one test often differ as much as different tests do.
# Molecular target: HuR (ELAVL1) - TNFalpha ARE RNA complex (UniProt Q15717)
# Experiment: AlphaScreen HuR-RNA complex signal Z-score relative to positive (Bi-TNF, DMSO) controls (Z-score (SD units of positive control)); higher = more complex signal
# Conditions: screen stage: primary screen; compound concentration: 25 nM
row,SMILES,AlphaScreen HuR-RNA complex signal Z-score
1,C[C@@H]1CC[C@H]2[C@@H](C)C(=O)O[C@@H]3O[C@@]4(C)CC[C@@H]1[C@]32OO4,1.77
2,CC[C@H]1[C@@H]2C[C@H]3[C@@H]4N(C)c5ccccc5[C@]45C[C@@H]([C@@H]2[C@H]5O)N3[C@@H]1O,0.549
3,COc1ccc(C[C@H]2NC[C@H](O)[C@H]2OC(C)=O)cc1,1.27
4,CC1(C)N([O-])[N+](=O)C1(C)Br (stereo unspecified),1.81
5,COc1ccc2c(c1)[nH]c1c(C)nccc12,1.09
6,Oc1c(Cl)c(Cl)c(Cl)c(Cl)c1Cl,2.78
7,O=C1c2ccccc2C(=O)c2ccccc21,2.85
8,NCCc1c[nH]c2ccc(O)cc12,0.649
9,CNC(C)[C@H](O)c1ccccc1 (stereo partly specified),2.54
10,CCC(COC(=O)c1cc(OC)c(OC)c(OC)c1)(c1ccccc1)N(C)C (stereo unspecified),1.07
11,COC(=O)C(c1ccccc1)C1CCCCN1 (stereo unspecified),2.09
12,C[C@H]1C(=O)O[C@@H]2CCN3CC=C(COC(=O)[C@](C)(O)[C@]1(C)O)[C@H]23,-3.63
13,CC(C)=CCCC1(C)C=Cc2c(O)c3c(c(CC=C(C)C)c2O1)OC12C(=CC4CC1C(C)(C)OC2(C/C=C(/C)C(=O)O)C4O)C3=O (stereo unspecified),1.62
14,COC[C@]12CN(C=O)[C@@H]3[C@@H]4[C@H](OC)[C@H]1[C@@]3([C@@H](OC)C[C@H]2O)[C@@H]1C[C@@]2(O)[C@H](OC(=O)c3ccccc3)[C@@H]1[C@]4(OC(C)=O)[C@@H](O)[C@@H]2OC,3.34
15,O=C(O)COc1cc(Cl)c(Cl)cc1Cl,2.4
16,CO[C@]12C[C@@H](COC(=O)c3cncc(Br)c3)CN(C)[C@@H]1Cc1cn(C)c3cccc2c13,0.652
17,COc1cc2c(cc1OC)[C@@H]1C(=O)c3ccc4oc(C(C)C)cc4c3O[C@@H]1CO2,2.18
18,O=C(O)CCC1NCC2CC1CN1CCCCC21 (stereo unspecified),2
19,C[N+]12CCC(CC1)C(OC(=O)C(O)(c1ccccc1)c1ccccc1)C2 (stereo unspecified),-6.23
20,O=C1CCC[C@@H]2[C@H]3C[C@@H](CN12)[C@@H]1CCCCN1C3.[O-][Cl+3]([O-])([O-])O,1.17
21,CC(CC(C(N)=O)(c1ccccc1)c1ccccc1)N(C)C (stereo unspecified),1.63
22,COc1cc2c(cc1-c1cc3cc4ccoc4cc3oc1=O)OCO2,1.59
23,CN(C)C(=S)SSC(=S)N(C)C,-3.15
24,CC(C)C[C@H](CN)CC(=O)O,1.48
25,O=C1NC(=O)C(=O)C(=O)N1,1.88
26,CC(C)(C)NCC(O)c1ccccc1Cl (stereo unspecified),1.32

# As entered above:
# Entry for `Oc1c(Cl)c(Cl)c(Cl)c(Cl)c1Cl` under AlphaScreen HuR-RNA complex signal Z-score: 2.78
# Entry for `COc1cc2c(cc1OC)[C@@H]1C(=O)c3ccc4oc(C(C)C)cc4c3O[C@@H]1CO2` under AlphaScreen HuR-RNA complex signal Z-score: 2.18
